# In PMC10329651, “ATPase activity of DFCP1 controls selective autophagy” (Nature Communications, 2023):
# Results are given in words; binding and its absence hold for the method and conditions named. Tags and fused reporters may be left off the sequences shown.
# What was measured:
# [1] = molecular target: His6-MBP-DFCP1 WT (aa 1-410) (UniProt Q9HBF4); assay: condition: only loaded with 400 µM ADP instead of ATPγS; SEC; protein loaded with 400 µM ADP for 20 min at RT in exchange buffer (50 mM Tris, 150 mM NaCl, 50 mM MgCl2, 10% glycerol, 1 mM TCEP); Superdex 200 Increase 10/300 GL, isocratic elution at 4 °C, 0.25 ml/min; molecular weights relative to a Bio-Rad gel filtration standard; both purified
# [2] = molecular target: His6-MBP-DFCP1 K193A (aa 1-410) (UniProt Q9HBF4); assay: SEC; protein loaded with 400 µM ADP for 20 min at RT in exchange buffer (50 mM Tris, 150 mM NaCl, 50 mM MgCl2, 10% glycerol, 1 mM TCEP); Superdex 200 Increase 10/300 GL, isocratic elution at 4 °C, 0.25 ml/min; molecular weights relative to a Bio-Rad gel filtration standard; both purified
# [3] = molecular target: His6-MBP-DFCP1 K193A (aa 1-410) (UniProt Q9HBF4); assay: SEC; protein loaded with 400 µM ATPγS for 20 min at RT in exchange buffer (50 mM Tris, 150 mM NaCl, 50 mM MgCl2, 10% glycerol, 1 mM TCEP); Superdex 200 Increase 10/300 GL, isocratic elution at 4 °C, 0.25 ml/min; molecular weights relative to a Bio-Rad gel filtration standard; both purified
# [4] = molecular target: His6-MBP-DFCP1 T189A (aa 1-410) (UniProt Q9HBF4); assay: SEC; protein loaded with 400 µM ADP for 20 min at RT in exchange buffer (50 mM Tris, 150 mM NaCl, 50 mM MgCl2, 10% glycerol, 1 mM TCEP); Superdex 200 Increase 10/300 GL, isocratic elution at 4 °C, 0.25 ml/min; molecular weights relative to a Bio-Rad gel filtration standard; both purified
# [5] = molecular target: His6-MBP-DFCP1 T189A (aa 1-410) (UniProt Q9HBF4); assay: SEC; protein loaded with 400 µM ATPγS for 20 min at RT in exchange buffer (50 mM Tris, 150 mM NaCl, 50 mM MgCl2, 10% glycerol, 1 mM TCEP); Superdex 200 Increase 10/300 GL, isocratic elution at 4 °C, 0.25 ml/min; molecular weights relative to a Bio-Rad gel filtration standard; both purified
binder,measurement,setting,value
"His6-MBP-DFCP1 WT (aa 1-410) (domain or fragment, UniProt Q9HBF4 1-410, looked up, Loaded with ADP or ATPγS before size exclusion chromatography; dimer with ATPγS, monomer with ADP; The vector has a TEV site, but no cleavage is described; also called DFCP1 N-terminus; DFCP1 ATPase domain; not shown: His6, N-terminal, kept; MBP, N-terminal, kept) MSAQTSPAEKGLNPGLMCQESYACSGTDEAIFECDECCSLQCLRCEEELHRQERLRNHERIRLKPGHVPYCDLCKGLSGHLPGVRQRAIVRCQTCKINLCLECQKRTHSGGNKRRHPVTVYNVSNLQESLEAEEMDEETKRKKMTEKVVSFLLVDENEEIQVTNEEDFIRKLDCKPDQHLKVVSIFGNTGDGKSHTLNHTFFYGREVFKTSPTQESCTVGVWAAYDPVHKVAVIDTEGLLGATVNLSQRTRLLLKVLAISDLVIYRTHADRLHNDLFKFLGDASEAYLKHFTKELKATTARCGLDVPLSTLGPAVIIFHETVHTQLLGSDHPSEVPEKLIQDRFRKLGRFPEAFSSIHYKGTRTYNPPTDFSGLRRALEQLLENNTTRSPRHPGVIFKALKALSDRFSGE",binding,[1],no binding
"His6-MBP-DFCP1 K193A (aa 1-410) (domain or fragment, UniProt Q9HBF4 1-410) MSAQTSPAEKGLNPGLMCQESYACSGTDEAIFECDECCSLQCLRCEEELHRQERLRNHERIRLKPGHVPYCDLCKGLSGHLPGVRQRAIVRCQTCKINLCLECQKRTHSGGNKRRHPVTVYNVSNLQESLEAEEMDEETKRKKMTEKVVSFLLVDENEEIQVTNEEDFIRKLDCKPDQHLKVVSIFGNTGDGASHTLNHTFFYGREVFKTSPTQESCTVGVWAAYDPVHKVAVIDTEGLLGATVNLSQRTRLLLKVLAISDLVIYRTHADRLHNDLFKFLGDASEAYLKHFTKELKATTARCGLDVPLSTLGPAVIIFHETVHTQLLGSDHPSEVPEKLIQDRFRKLGRFPEAFSSIHYKGTRTYNPPTDFSGLRRALEQLLENNTTRSPRHPGVIFKALKALSDRFSGE",binding,[2],no binding
same,binding,[3],no binding
"His6-MBP-DFCP1 T189A (aa 1-410) (domain or fragment, UniProt Q9HBF4 1-410) MSAQTSPAEKGLNPGLMCQESYACSGTDEAIFECDECCSLQCLRCEEELHRQERLRNHERIRLKPGHVPYCDLCKGLSGHLPGVRQRAIVRCQTCKINLCLECQKRTHSGGNKRRHPVTVYNVSNLQESLEAEEMDEETKRKKMTEKVVSFLLVDENEEIQVTNEEDFIRKLDCKPDQHLKVVSIFGNAGDGKSHTLNHTFFYGREVFKTSPTQESCTVGVWAAYDPVHKVAVIDTEGLLGATVNLSQRTRLLLKVLAISDLVIYRTHADRLHNDLFKFLGDASEAYLKHFTKELKATTARCGLDVPLSTLGPAVIIFHETVHTQLLGSDHPSEVPEKLIQDRFRKLGRFPEAFSSIHYKGTRTYNPPTDFSGLRRALEQLLENNTTRSPRHPGVIFKALKALSDRFSGE",binding,[4],no binding
same,binding,[5],no binding
